Drawing on publication doi:10.1101/2022.10.09.510609, this text covers binding for 4 molecules.

Protein sequences, listed by entry. Tags and fused reporters are not part of them.
UniProt O14497: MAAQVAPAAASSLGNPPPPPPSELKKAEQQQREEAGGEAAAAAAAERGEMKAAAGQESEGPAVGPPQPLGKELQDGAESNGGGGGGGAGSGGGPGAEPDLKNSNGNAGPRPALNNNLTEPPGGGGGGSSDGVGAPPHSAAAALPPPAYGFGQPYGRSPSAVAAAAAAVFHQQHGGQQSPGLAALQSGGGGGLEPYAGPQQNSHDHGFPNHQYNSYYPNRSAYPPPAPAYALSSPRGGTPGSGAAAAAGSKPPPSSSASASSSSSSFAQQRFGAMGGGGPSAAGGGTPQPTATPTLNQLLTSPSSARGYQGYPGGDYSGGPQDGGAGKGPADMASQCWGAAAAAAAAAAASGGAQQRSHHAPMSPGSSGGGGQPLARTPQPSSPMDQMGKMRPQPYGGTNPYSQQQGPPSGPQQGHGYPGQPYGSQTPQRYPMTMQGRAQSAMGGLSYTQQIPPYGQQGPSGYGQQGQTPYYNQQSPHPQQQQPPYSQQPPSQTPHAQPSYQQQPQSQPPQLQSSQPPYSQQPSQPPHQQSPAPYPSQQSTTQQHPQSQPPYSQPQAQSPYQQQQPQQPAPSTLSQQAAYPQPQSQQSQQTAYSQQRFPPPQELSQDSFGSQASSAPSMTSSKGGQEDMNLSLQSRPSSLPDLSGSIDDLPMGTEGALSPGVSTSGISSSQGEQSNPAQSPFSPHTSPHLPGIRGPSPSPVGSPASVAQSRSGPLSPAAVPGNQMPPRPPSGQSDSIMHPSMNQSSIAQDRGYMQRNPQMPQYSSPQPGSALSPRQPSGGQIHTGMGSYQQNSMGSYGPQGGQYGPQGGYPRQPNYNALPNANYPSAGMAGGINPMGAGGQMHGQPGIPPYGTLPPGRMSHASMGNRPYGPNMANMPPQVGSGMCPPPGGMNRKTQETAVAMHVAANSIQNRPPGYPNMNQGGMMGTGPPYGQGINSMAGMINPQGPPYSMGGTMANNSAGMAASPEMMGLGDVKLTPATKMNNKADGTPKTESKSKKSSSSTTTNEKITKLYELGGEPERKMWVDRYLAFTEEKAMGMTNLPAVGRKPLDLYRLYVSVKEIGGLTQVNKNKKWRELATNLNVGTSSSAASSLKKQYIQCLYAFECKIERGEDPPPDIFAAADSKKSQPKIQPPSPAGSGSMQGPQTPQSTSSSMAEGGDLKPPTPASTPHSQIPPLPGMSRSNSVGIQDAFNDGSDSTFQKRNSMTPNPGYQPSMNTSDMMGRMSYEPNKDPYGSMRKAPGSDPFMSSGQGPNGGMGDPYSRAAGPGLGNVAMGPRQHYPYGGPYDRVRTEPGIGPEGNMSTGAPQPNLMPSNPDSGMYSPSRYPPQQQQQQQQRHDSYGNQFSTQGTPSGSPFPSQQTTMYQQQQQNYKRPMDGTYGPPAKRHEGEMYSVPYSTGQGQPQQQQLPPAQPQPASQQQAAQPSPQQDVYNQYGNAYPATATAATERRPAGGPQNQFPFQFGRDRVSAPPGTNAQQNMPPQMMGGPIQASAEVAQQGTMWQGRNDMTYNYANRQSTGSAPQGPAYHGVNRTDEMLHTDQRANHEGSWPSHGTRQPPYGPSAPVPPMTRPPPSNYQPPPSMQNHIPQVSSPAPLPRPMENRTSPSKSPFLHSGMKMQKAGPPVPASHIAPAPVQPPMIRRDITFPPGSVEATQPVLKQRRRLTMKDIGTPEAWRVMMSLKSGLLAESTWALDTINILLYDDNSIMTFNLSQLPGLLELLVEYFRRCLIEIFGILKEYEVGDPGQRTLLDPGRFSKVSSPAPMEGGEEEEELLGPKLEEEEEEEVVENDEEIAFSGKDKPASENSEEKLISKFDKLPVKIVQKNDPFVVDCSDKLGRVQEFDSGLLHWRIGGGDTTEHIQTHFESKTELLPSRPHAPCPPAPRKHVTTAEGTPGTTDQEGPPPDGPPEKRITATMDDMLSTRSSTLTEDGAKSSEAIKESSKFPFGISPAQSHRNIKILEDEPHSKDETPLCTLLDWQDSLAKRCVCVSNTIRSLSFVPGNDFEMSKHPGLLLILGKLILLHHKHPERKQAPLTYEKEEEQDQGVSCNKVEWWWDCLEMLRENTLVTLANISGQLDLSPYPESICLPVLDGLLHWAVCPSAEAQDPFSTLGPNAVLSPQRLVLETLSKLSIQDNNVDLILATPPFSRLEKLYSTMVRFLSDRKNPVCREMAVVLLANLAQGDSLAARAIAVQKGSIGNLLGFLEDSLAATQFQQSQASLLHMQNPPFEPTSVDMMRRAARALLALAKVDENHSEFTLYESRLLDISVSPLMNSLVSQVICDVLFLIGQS
UniProt Q92922: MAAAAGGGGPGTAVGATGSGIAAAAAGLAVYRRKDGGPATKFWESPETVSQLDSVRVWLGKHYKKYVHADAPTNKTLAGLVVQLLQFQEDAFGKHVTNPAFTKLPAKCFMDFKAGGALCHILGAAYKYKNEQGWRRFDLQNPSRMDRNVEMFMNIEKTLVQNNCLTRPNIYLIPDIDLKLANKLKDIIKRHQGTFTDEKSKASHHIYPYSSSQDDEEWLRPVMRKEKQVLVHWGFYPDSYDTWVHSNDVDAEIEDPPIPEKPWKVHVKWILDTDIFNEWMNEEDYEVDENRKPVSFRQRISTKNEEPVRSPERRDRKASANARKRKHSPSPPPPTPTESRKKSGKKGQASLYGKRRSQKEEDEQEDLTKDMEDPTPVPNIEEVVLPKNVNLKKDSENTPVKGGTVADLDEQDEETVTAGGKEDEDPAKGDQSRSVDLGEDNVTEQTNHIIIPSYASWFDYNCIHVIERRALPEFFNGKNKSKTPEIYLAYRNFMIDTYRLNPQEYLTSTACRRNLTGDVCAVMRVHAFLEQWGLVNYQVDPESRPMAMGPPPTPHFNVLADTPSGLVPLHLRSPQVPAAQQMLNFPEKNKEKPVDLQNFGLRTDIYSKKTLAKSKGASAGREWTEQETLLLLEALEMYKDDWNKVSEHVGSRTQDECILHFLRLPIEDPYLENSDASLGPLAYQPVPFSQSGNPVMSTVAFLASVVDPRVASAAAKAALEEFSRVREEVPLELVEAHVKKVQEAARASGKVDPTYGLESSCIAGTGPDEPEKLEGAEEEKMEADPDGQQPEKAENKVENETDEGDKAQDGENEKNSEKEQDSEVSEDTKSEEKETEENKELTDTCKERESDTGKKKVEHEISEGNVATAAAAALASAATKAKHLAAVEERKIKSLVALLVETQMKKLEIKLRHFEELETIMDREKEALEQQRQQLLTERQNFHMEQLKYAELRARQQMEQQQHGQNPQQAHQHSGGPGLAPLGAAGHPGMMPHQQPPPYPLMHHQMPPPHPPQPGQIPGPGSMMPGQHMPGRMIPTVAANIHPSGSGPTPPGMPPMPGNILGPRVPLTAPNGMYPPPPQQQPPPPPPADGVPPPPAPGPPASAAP
UniProt Q12824: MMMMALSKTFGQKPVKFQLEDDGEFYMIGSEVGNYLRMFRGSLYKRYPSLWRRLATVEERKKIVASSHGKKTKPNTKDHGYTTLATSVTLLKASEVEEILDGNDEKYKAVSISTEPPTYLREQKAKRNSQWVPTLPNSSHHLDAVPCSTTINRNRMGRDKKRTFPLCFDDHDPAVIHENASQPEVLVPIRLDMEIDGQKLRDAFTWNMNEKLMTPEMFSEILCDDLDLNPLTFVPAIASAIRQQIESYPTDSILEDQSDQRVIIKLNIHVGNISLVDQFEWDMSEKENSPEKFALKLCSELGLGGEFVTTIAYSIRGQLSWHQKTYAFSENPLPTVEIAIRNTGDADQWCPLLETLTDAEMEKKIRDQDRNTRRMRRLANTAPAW
UniProt Q8TAQ2: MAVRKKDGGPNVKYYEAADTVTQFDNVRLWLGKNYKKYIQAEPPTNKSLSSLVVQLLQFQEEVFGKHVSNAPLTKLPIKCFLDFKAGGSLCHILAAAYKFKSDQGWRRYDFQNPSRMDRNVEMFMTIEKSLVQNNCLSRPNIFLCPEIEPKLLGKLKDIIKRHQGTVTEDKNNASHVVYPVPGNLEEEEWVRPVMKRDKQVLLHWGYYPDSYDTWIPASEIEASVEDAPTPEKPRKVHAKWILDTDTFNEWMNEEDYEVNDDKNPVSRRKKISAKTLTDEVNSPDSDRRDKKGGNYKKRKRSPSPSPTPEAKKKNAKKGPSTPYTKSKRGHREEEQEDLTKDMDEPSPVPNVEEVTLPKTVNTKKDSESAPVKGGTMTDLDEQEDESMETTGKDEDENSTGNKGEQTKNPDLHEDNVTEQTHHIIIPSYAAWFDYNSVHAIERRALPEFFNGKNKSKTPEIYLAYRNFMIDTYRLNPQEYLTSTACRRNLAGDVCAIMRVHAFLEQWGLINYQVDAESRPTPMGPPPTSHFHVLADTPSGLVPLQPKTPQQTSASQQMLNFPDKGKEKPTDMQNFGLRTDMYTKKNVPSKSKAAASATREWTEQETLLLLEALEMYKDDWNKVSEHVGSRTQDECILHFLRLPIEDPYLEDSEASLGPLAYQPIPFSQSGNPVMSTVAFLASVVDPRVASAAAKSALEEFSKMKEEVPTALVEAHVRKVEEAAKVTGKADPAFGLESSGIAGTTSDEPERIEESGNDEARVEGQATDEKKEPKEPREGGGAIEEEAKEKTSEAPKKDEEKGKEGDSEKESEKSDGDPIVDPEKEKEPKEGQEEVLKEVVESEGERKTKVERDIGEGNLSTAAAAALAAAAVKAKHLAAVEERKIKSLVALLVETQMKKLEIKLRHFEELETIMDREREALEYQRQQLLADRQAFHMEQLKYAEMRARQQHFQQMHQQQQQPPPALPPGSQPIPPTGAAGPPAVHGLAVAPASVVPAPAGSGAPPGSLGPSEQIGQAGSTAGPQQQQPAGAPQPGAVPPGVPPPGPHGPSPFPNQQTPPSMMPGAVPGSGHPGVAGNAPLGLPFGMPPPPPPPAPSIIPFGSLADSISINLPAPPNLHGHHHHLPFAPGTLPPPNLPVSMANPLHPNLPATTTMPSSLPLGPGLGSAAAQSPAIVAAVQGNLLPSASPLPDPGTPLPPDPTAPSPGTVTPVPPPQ

Results are given in words; binding and its absence hold for the method and conditions named. Binding seen in cells or lysates may run through a third protein. Some results given as binding are weak or reduced against the parent protein; the word gives no strength.

Test [1] addresses T1, ASCL1 (human (endogenous in iPSC-derived neural cultures and fetal cortex)) (UniProt P50553).
T1 sequence: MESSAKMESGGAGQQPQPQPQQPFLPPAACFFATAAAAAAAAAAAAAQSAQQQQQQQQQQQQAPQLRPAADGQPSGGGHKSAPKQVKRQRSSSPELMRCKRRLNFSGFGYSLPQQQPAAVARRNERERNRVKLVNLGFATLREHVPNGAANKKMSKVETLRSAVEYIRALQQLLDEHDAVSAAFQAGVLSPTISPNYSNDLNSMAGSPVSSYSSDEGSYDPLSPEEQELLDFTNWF
Put plainly: proximity ligation.

Test [2] addresses T1, ASCL1 (human (endogenous in iPSC-derived neural cultures and fetal cortex)). Nature of the test: proximity ligation. The source holds these as a separate data set.
Test [3] shares this target. Put plainly: co-IP.
For test [4], the target named is ARID1A (human (endogenous in iPSC-derived neural cultures)) (UniProt O14497). Nature of the test: co-IP.
The target in test [5] is SMARCC1 (human (endogenous in iPSC-derived neural cultures)) (UniProt Q92922). Put plainly: co-IP.

Consider SMARCB1 (from UniProt Q12824 1-385), for which the binding entry in test [1] and in test [2] was “binds” in each case.
Take SMARCC1 (from UniProt Q92922 1-1105): the binding entry in test [3] is “binds”.
As for SMARCC2 (from UniProt Q8TAQ2 1-1214), the binding result in test [1] and in test [2] was “binds” throughout.

B1: ASCL1 (protein, UniProt P50553 1-236)
chain: MESSAKMESGGAGQQPQPQPQQPFLPPAACFFATAAAAAAAAAAAAAQSAQQQQQQQQQQQQAPQLRPAADGQPSGGGHKSAPKQVKRQRSSSPELMRCKRRLNFSGFGYSLPQQQPAAVARRNERERNRVKLVNLGFATLREHVPNGAANKKMSKVETLRSAVEYIRALQQLLDEHDAVSAAFQAGVLSPTISPNYSNDLNSMAGSPVSSYSSDEGSYDPLSPEEQELLDFTNWF
On to B1, for which the binding result in test [4] and in test [5] was “binds” throughout.
